Reference: patent US20060211573A1, “7-(Akenylamino)triazolopyrimidines, method for the production thereof and use thereof in controlling harmful fungi and substances containing said triazolopyrimidines” (priority 2003, published 2006)
Some of these results come from one statement about several compounds together.

System: Botrytis cinerea
Assay: Activity against gray mold on Capsicum leaves caused by Botrytis cinerea (protective spray on seedlings)
Type: in vivo
Conditions: 250 ppm active compound, sprayed one day before inoculation, assessed after 5 days; untreated plants 80% infected

C=CC(C)Nc1c(-c2c(F)cc(F)cc2F)c(Cl)nc2ncnn12 (stereo not shown) [I-1, 5-chloro-6-(2,4,6-trifluorophenyl)-7-(1-methyl-2-propen-1-yl)amino[1,2,4]triazolo[1,5-a]pyrimidine]
extent of fungal infection on the leaves, determined visually in %: up to 3%
